Our source for the binding values is patent publication US20050069951A1.

By UniProt entry, the sequences of proteins in these tests, tags left out.
UniProt P03372: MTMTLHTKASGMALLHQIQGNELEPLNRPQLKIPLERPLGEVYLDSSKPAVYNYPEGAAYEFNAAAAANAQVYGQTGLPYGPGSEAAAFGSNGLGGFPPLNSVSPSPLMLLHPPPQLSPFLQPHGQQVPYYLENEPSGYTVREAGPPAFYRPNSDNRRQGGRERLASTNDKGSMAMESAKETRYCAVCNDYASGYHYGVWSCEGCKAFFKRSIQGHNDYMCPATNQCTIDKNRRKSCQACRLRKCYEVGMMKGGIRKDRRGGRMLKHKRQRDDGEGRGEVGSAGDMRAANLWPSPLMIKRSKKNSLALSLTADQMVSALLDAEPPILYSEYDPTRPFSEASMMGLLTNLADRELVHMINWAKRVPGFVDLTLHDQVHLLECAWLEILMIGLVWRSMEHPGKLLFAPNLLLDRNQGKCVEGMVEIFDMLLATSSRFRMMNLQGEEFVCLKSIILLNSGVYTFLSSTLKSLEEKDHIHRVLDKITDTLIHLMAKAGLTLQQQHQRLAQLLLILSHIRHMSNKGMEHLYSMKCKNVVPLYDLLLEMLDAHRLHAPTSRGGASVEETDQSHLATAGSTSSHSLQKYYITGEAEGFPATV
UniProt P16790: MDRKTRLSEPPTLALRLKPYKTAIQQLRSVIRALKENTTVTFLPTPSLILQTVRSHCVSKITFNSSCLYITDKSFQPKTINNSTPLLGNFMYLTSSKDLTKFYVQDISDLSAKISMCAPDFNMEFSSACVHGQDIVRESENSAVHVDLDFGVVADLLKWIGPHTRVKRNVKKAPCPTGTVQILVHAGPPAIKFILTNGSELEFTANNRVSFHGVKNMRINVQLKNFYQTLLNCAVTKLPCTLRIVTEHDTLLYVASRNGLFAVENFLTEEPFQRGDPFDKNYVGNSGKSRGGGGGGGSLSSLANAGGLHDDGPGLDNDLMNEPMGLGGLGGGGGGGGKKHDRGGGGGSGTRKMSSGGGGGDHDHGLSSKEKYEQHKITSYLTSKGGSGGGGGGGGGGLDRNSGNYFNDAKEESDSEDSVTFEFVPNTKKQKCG

No constants are given. Whether binding was seen depends on the method and setting. Some entries that bind do so weakly or less than the wild type.

The target in assay [1] is T1, Yeast alcohol dehydrogenase (yeast) (UniProt P00330).
T1 sequence (looked up): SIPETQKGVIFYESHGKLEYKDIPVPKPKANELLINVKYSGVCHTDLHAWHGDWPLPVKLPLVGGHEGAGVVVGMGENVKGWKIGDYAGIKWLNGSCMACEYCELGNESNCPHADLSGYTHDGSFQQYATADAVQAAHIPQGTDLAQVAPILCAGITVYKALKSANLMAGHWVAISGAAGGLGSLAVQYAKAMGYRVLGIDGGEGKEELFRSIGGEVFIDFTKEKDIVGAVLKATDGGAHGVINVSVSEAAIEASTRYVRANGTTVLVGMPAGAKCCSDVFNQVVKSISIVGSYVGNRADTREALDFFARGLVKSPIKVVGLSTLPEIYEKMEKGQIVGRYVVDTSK
The assay can be described thus: phage ELISA.

The target of assay [2] is estrogen receptor α (UniProt P03372). The assay can be described thus: phage ELISA on immobilized ER; phage selected without estradiol. A general note: ELISA stands for enzyme-linked immunosorbent assay.
Assay [3] has the same target. The assay can be described thus: phage ELISA on immobilized ER with estradiol or antiestrogens; phage selected with estradiol.
The target in assay [4] is thrombin cleaved UL44 (human cytomegalovirus) (UniProt P16790). The assay can be described thus: phage ELISA, immobilized thrombin cleaved UL44.
Assay [5] concerns the target GST-UL44 fusion protein (human cytomegalovirus) (UniProt P16790). The assay can be described thus: phage ELISA on immobilized GSTUL44 with GSH or DNA as competitor.
The target is the same in assay [6]. The assay can be described thus: phage ELISA on immobilized GSTUL44.
Assay [7] shares this target. As to the kind of experiment: phage ELISA, immobilized target.
For assay [8], the target named is thrombin cleaved UL44 (human cytomegalovirus) (UniProt P16790). The assay can be described thus: phage ELISA, immobilized target.
Assay [9] concerns the target GST-UL44 fusion protein (human cytomegalovirus) (UniProt P16790). The assay can be described thus: ELSA: biotinylated peptide pre-complexed with SA-AP, immobilized target.

As to SSLLNESRLQWSTSR [phage-displayed peptide … (R library)], the binding entry in [1] is “binds”.
Same read-out and setting: in the case of SSNYWWQSPVLSRHSR [phage-displayed peptide … (CWL library)] it was “binds”.
For the molecule SSSFKPWPIYLGSSR [phage-displayed peptide … (P library)], in [1], the binding entry is “binds”.
Still for that read-out and setting: with SVSVGMKPSPRP [phage-displayed peptide … (PHD12 library)] the entry was “binds”; with SSWQGNVLLGNWISR [phage-displayed peptide … (L library)], “binds”.
As for SSWVRLSDFPWGVSR [ER phage 1 (selected without estradiol)], the binding entry in assay [2] and in assay [3] was “binds” throughout.
For the molecule SRQVEVFKPWPVYSR [phage-displayed peptide … (K library)], the binding entry in [1] is listed as “binds”.
On to SSLTSRDFGSWYASR [ER + estradiol phage 5], for which the binding result in assay [3] was “binds”.
For the molecule EHVCSWGWGRC [UL44-binding phage from the X10C library], the binding result in assay [4], in assay [5], in assay [6], in assay [7] and in [8] was “binds” in each case.
As for SSEYCFYWDSAHCSR [ER + estradiol phage 33], the binding entry in assay [3] is “binds”.
With SGSGEHVCSWGWGRC (N-terminal biotin) [biotinylated UL44 surrogate ligand peptide], in assay [9], the binding entry is “binds”.
